Experimental data reported in patent US20220211858A1, “TUBULAR SUPRAMOLECULAR POLYMERS” (priority 2019, published 2022).
Some results were stated once for a whole list of compounds, not compound by compound.

What was measured:
[1] = Critical micellization concentration (CMC) via Nile Red encapsulation; type: physicochemical; details: SAPDs, PBS buffer, Nile Red method
Procedure: Nile Red is a hydrophobic, solvatochromic dye that fluoresces intensely upon exposure to hydrophobic environments compared with its strongly quenched and red-shifted fluorescence in aqueous environments. The CMC of the TTs was determined by incubating these molecules at various concentrations with a fixed content of Nile Red. 10 μL of a 1 mM Nile Red stock solution in acetone was added to each microcentrifuge tube to be used, with the acetone allowed to evaporate in a dark area. TT solutions of various concentrations were subsequently added to the Nile Red containing tubes and equilibrated overnight. The emission spectrum for each sample was then recorded on a Fluorolog spectrofluorometer (Horiba Jobin Yvon Inc., Edison, N.J.), acquiring between 580 and 720 nm with an excitation wavelength of 550 nm.
CMC Measurement of SAPDs of TT1. We next assessed the CMC values for each of the designed SAPDs in aqueous solution. […] Experimentally, the CAC is often measured using spectrometry techniques such as circular dichroism (CD) to reveal the presence of intermolecular associations and packing at a much lower concentration. In the case reported here, the CMC values were measured in the PBS buffer using Nile Red as a probe, which fluoresces intensely in hydrophobic environments and is strongly quenched and red-shifted in aqueous media. […]

[2] = Circulation studies of SAPDs in rats; type: in vivo, Sprague Dawley (SD) rats; details: 10 mg/kg i.v., within 5 min
Procedure: Circulation studies of SAPDs in rats. Female Sprague Dawley (SD) Rats (200-250 g) were randomly grouped into four groups with three rats in each group. SAPDs were all intravenously (i.v.) dosed at 10 mg/kg (CPT equivalent). The dosing volumes of SAPDs were estimated by a ratio of 1 mL for a 200 g rat. The blood samples were collected at 5 min, 15 min, 30 min, 1 h, 2 h, 4 h, 8 h, and 12 h, which were immediately centrifuged to take plasma for further analysis and stored at −80° C. The plasma proteins were precipitated using similar protocols as mentioned above in drug release section and the determination of SAPDs and free CPT in the plasma by UPLC also used the same conditions.
Estimation of SAPD concentration in plasma upon injection. To calculation the concentration after dilution, we simply set the following parameters: body weight of mice (20 g), dosing volume of mice (200 μL), blood volume of mice (1.8 mL), body weight of rat (200 g), dosing volume of mice (1 mL), blood volume of mice (18 mL) and the dosage for both mice and rats (10 mg/kg).

[3] = Drug release and chemical stability of SAPDs in PBS with or without GSH; type: physicochemical; details: 200 μM, without GSH, 120 h
Procedure: Drug release and chemical stability studies of SAPDs. Drug release studies of four SAPDs were performed at a concentration of 200 μM in PBS buffer with or without the reducing agent glutathione (GSH). Briefly, 400 μM stock solutions of SAPDs in water were prepared and aged overnight. Stock solutions containing 2×PBS (20 mM) with or without 20 mM GSH were prepared 1 h before the experiment, and the pH was tuned to 7.4 with NaOH. The prodrug solutions were further diluted to 200 μM with 20 mM (2×) PBS buffer with or without GSH (20 mM) to give final solutions of 200 μM prodrug, 10 mM PBS and with or without 10 mM GSH. Three replicates of each SAPD were prepared with or without GSH and were incubated at 37° C. Samples with GSH were collected at 0 min, 5 min, 10 min, 15 min, 30 min, 1 h and 2 h, while samples without GSH were collected at 0 h, 6 h, 12 h, 24 h, 48 h, 72 h, 96 h and 120 h. […] The release profile was determined by analytical RP-HPLC using the following conditions: Varian Pursuit XRs C18 (5 μm, 150×4.6 mm); 362 nm detection wavelength; 1 mL/min flow rate; the gradient began at 15% to 85% acetonitrile containing 0.1% TFA by 15 min and back to initial gradient at 18 min. The calculated data points were plotted as a percentage of the total CPT concentration against time. […]

| SMILES | CMC [1] | CPT released [2] | conjugates remaining intact [3] |
| --- | --- | --- | --- |
| CC[C@]1(OC(=O)OCCSSC[C@@H](NC(C)=O)C(=O)N[C@@H](CCCCNC(=O)[C@@H](CSSCCOC(=O)O[C@]2(CC)C(=O)OCc3c2cc2n(c3=O)Cc3cc4ccccc4nc3-2)NC(C)=O)C(=O)N[C@@H](CCCCNC(=O)CCOCCOCCOCCOCCOC)C(=O)N[C@@H](CCCCNC(=O)CCOCCOCCOCCOCCOC)C(=O)N[C@@H](CCCCNC(=O)CCOCCOCCOCCOCCOC)C(=O)N[C@@H](CCCCNC(=O)CCOCCOCCOCCOCCOC)C(=O)N[C@@H](CCCCNC(=O)CCOCCOCCOCCOCCOC)C(=O)N[C@@H](CCCCNC(=O)CCOCCOCCOCCOCCOC)C(N)=O)C(=O)OCc2c1cc1n(c2=O)Cc2cc3ccccc3nc2-1 [SAPD 3] | exceed 200 μM | more than 98% | less than 60% |
| CC[C@]1(OC(=O)OCCSSC[C@@H](NC(C)=O)C(=O)N[C@@H](CCCCNC(=O)[C@@H](CSSCCOC(=O)O[C@]2(CC)C(=O)OCc3c2cc2n(c3=O)Cc3cc4ccccc4nc3-2)NC(C)=O)C(=O)N[C@@H](CCCCNC(=O)CCOCCOCCOCCOCCOC)C(=O)N[C@@H](CCCCNC(=O)CCOCCOCCOCCOCCOC)C(=O)N[C@@H](CCCCNC(=O)CCOCCOCCOCCOCCOC)C(=O)N[C@@H](CCCCNC(=O)CCOCCOCCOCCOCCOC)C(=O)N[C@@H](CCCCNC(=O)CCOCCOCCOCCOCCOC)C(=O)N[C@@H](CCCCNC(=O)CCOCCOCCOCCOCCOC)C(=O)N[C@@H](CCCCNC(=O)CCOCCOCCOCCOCCOC)C(=O)N[C@@H](CCCCNC(=O)CCOCCOCCOCCOCCOC)C(N)=O)C(=O)OCc2c1cc1n(c2=O)Cc2cc3ccccc3nc2-1 [SAPD 4] | exceed 200 μM | more than 98% | less than 60% |
